Here are results for 13 compounds from the supplement of paper PMC11659162.

For assay [1], the system named is H4 GFP-LC3. The assay can be described thus: cell viability (scaled to control) (fraction of control); higher = more viable cells.
The subject of assay [2] is H4 GFP-LC3. The assay can be described thus: ACBP immunofluorescence intensity (scaled to control) (AU (scaled)); higher = more intracellular ACBP/DBI.

The list shows a part of the results. Single values of this set are uncertain.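 The cells are a human neuroglioma line carrying a green fluorescent autophagy reporter.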

As for `O=C(O)CNc1ccc(P(=O)(O)O)cc1` (5 µM), the cell viability with H4 GFP-LC3 [1] (6 h) is 1.2; in the assay on H4 GFP-LC3 [1] (24 h) it was 1.22. The ACBP immunofluorescence intensity with H4 GFP-LC3 [2] (6 h) was found to be 0.639; in the assay on H4 GFP-LC3 [2] (24 h), 0.333.
Consider `O=C1CC2(CCCC2)CC(=O)N1CCCCNCC1COc2ccccc2O1` (configuration not stated) (5 µM), for which the figures for the cell viability in the assay with H4 GFP-LC3 [1] (6 h) and with H4 GFP-LC3 [1] (24 h) were 0.775 and 0.635, respectively. Besides, the ACBP immunofluorescence intensity with H4 GFP-LC3 [2] (6 h) is 0.842; in the assay with H4 GFP-LC3 [2] (24 h), 0.661.
On to `CCCCCCN(CCCCCC)C(=O)Cc1c(-c2ccc(Cl)cc2)[nH]c2ccc(Cl)cc12` (5 µM), for which the cell viability was determined as 0.903 in the assay on H4 GFP-LC3 [1] (6 h) and 1.02 in the assay with H4 GFP-LC3 [1] (24 h). In addition, the values for the ACBP immunofluorescence intensity in the assay on H4 GFP-LC3 [2] (6 h) and in the assay on H4 GFP-LC3 [2] (24 h) were 0.984 and 0.955, respectively.
Taken in the same sequence, the figures for `C[C@]12CC[C@@H]3c4ccc(O)cc4CC[C@H]3[C@@H]1CC[C@@H]2O` (5 µM) were 1.18, 0.905, 0.351 and 0.738.
For the compound `N[C@@H](CS(=O)O)C(=O)O` (5 µM), the values for the cell viability in the assay with H4 GFP-LC3 [1] (6 h) and with H4 GFP-LC3 [1] (24 h) were 1.05 and 1.3, respectively. The results for the ACBP immunofluorescence intensity with H4 GFP-LC3 [2] (6 h) and in the assay with H4 GFP-LC3 [2] (24 h) were 0.962 and 0.846, respectively.
Take `CC(C)NC[C@H](O)COc1cccc2ccccc12` (5 µM): the cell viability in the assay with H4 GFP-LC3 [1] (6 h) is 0.718; with H4 GFP-LC3 [1] (24 h) it was 0.905. Also, the ACBP immunofluorescence intensity with H4 GFP-LC3 [2] (6 h) is 0.918; in the assay with H4 GFP-LC3 [2] (24 h), 0.389.
The corresponding values for `CSc1ccc2c(c1)N(CCC1CCCCN1C)c1ccccc1S2` (configuration not stated) (5 µM) are 0.858, 1.3, 0.921 and 0.784.
The corresponding values for `NC[C@@H](O)c1ccc(O)c(O)c1` (5 µM) are 0.66, 0.673, 0.887 and 0.475.
Turning to `CC(C)(C)NCC(O)c1ccc(O)c(CO)c1` (configuration not stated) (5 µM), the cell viability in the assay with H4 GFP-LC3 [1] (6 h) was determined as 0.834; in the assay with H4 GFP-LC3 [1] (24 h) it was 0.781. Moreover, the figures for the ACBP immunofluorescence intensity with H4 GFP-LC3 [2] (6 h) and in the assay on H4 GFP-LC3 [2] (24 h) were 0.778 and 0.354, respectively.
As to `Cc1c(C2CCN(CCc3ccccc3)CC2)noc1-c1ccc(Cl)cc1` (5 µM), the values for the cell viability in the assay with H4 GFP-LC3 [1] (6 h) and in the assay on H4 GFP-LC3 [1] (24 h) were 0.632 and 1.11, respectively. The ACBP immunofluorescence intensity in the assay on H4 GFP-LC3 [2] (6 h) stood at 0.931; with H4 GFP-LC3 [2] (24 h) it was 0.466.
For `N[C@@H](CSS(=O)(=O)O)C(=O)O` (5 µM), the values for the cell viability in the assay with H4 GFP-LC3 [1] (6 h) and in the assay on H4 GFP-LC3 [1] (24 h) were 0.949 and 1.42, respectively. Also, the ACBP immunofluorescence intensity in the assay with H4 GFP-LC3 [2] (6 h) stood at 0.995; in the assay with H4 GFP-LC3 [2] (24 h), 0.891.
Taken in the same sequence, the figures for `N[C@@H](Cc1ccc(O)c(O)c1)C(=O)O` (5 µM) were 1.07, 0.884, 0.566 and 0.585.
As to `NC/C=C/C(=O)O` (5 µM), the values for the cell viability in the assay on H4 GFP-LC3 [1] (6 h) and in the assay with H4 GFP-LC3 [1] (24 h) were 0.906 and 1.05, respectively. Besides, the ACBP immunofluorescence intensity came to 0.952 with H4 GFP-LC3 [2] (6 h) and 0.744 with H4 GFP-LC3 [2] (24 h).
